Data taken from patent publication US20180244776A1.
Numbering of substitutions follows the chain as printed. No constants are given. Whether binding was seen depends on the method and setting. Some results given as binding are weak or reduced against the parent protein; the word gives no strength.

T1: human Sema3A (human) (UniProt Q14563)
T1 sequence (looked up): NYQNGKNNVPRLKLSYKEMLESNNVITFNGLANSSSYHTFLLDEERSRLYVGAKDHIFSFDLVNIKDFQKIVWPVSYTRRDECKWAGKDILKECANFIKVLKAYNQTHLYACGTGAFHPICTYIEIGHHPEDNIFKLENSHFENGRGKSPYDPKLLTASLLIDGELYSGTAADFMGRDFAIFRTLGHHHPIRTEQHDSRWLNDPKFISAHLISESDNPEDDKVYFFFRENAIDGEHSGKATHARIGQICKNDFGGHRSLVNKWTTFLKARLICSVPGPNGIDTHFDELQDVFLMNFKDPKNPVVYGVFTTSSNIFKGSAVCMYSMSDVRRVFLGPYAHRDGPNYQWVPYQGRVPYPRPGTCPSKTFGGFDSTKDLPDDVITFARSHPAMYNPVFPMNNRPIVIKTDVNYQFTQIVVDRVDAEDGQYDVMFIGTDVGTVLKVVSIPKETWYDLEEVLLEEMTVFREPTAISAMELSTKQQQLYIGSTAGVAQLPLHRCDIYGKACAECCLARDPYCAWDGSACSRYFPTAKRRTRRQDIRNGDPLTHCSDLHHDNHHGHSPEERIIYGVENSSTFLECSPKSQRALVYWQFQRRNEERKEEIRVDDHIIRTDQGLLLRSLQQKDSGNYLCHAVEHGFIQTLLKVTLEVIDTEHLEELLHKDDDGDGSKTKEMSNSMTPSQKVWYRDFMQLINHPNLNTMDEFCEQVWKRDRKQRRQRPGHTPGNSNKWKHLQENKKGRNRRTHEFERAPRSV

T2: mouse Sema3A (mouse) (UniProt O08665)
T2 sequence (looked up): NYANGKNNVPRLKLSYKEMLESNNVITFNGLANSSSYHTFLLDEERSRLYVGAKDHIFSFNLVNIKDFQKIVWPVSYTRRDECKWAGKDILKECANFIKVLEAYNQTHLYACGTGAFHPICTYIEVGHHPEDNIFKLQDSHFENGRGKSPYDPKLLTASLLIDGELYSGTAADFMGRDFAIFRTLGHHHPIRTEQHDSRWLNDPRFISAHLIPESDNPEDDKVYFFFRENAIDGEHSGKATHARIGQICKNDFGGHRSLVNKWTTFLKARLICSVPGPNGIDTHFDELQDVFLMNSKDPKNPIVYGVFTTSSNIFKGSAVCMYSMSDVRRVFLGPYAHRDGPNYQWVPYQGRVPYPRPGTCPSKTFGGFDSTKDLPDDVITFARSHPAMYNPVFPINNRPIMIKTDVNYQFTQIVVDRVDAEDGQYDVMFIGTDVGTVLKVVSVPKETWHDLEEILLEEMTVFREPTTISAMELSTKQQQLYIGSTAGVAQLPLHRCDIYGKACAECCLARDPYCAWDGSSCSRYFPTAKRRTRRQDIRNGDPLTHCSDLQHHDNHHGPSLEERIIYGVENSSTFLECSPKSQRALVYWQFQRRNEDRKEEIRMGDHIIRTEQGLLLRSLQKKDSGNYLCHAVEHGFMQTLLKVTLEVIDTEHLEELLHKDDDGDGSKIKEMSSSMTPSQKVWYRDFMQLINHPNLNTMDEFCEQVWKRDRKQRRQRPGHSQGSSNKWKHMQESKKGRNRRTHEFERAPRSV

B1: F11 anti-Sema3A IgG (antibody, V domains shown)
VH: EVQLLESGGGLVQTGGSLRLSCAASGFTFSDYAMSWVRQAPGKGLEWVSWIYYDSGSKYYADSVKGRFTISRDNSKNTLYLQMNSLRAEDTAVYYCAKLNGDFDYWGQGTLVTVSS
VL: QSVLTQPPSASGTPGQRVTISCSGSSSNIGNNDVSWYQQLPGTAPKLLIYADSHRPSGVPDRFSGSKSGTSASLAISGLRSEDEADYYCGAWDSSLSGYVFGGGTKLTVL
B2: A08 anti-Sema3A IgG (antibody, V domains shown)
VH: B1 VH with T14P, W50G, S55D, G56S, K58Q, L99N, N100L, D102R
VL: B1 VL with S23T, N31S, D33A, S35T, A51D, S53N, S94D, G98A
B3: C10 anti-Sema3A IgG (antibody, V domains shown)
VH: B1 VH with T14P, W50G, S55D, G56S, K58Q, K65E, K98R, L99Y, N100L, D102L
VL: B1 VL with D33S, S35N, A51S, H54Q, A91S, S94Y, G98A

Target: T1, human Sema3A (human)
Test: SPR, Biacore

binding, binds:
B1
B2
B3

Target: T2, mouse Sema3A (mouse)
Test: SPR, Biacore

binding, binds:
B1
B2
B3

Target: T1, human Sema3A (human)
Test: ELISA, IgG at 500 nM and 50 nM, BSA as negative control

binding, binds:
B1
B2
B3

Target: T2, mouse Sema3A (mouse)
Test: as above

binding, binds:
B1
B2
B3
